Assay results taken from PubChem BioAssay AID720504 (National Center for Advancing Translational Sciences (NCATS), 2013).
Screen size: about 360,000 compounds; about 10,000 (2.8%) were called active. Inconclusive results, whose numbers are uncertain, are shown with a selection of clear calls. Calls follow the shape of the dose curve; as a rule, active = well fitted inhibition curve with a large enough effect; inconclusive = small, poorly fitted or top-dose-only effect; inactive = flat fitted curve, though single readings scatter. Where the call is inconclusive, the potency comes from a doubtful curve fit.

The chains behind the UniProt entries cited, without tags or fusion partners.
UniProt P53350, whole entry, looked up: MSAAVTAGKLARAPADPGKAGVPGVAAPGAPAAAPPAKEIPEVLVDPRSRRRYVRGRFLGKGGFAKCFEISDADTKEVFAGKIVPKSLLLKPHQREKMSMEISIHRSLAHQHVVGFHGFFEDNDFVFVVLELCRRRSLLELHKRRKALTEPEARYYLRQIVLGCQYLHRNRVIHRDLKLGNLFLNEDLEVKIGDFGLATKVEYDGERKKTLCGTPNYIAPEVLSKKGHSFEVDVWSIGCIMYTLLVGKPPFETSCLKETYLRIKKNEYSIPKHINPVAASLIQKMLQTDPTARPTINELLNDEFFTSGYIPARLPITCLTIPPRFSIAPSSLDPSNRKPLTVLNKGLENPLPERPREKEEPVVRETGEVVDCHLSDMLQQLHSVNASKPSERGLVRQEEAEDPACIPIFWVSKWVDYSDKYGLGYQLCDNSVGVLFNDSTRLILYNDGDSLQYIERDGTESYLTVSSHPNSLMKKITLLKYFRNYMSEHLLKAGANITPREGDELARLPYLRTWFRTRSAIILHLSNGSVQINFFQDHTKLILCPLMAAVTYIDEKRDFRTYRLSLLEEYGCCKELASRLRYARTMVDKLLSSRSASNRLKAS

target: Serine/threonine-protein kinase PLK1 (Homo sapiens) (UniProt P53350); test: qHTS for Inhibitors of PLK1-PDB (polo-like kinase 1 - polo-box domain): Primary Screen; details: Plk1 PBD binding of FITC phosphopeptide, fluorescence polarization; also: nearly all actives have a fitted effect of over 65% in size; as to max response, negative = inhibition: series mostly up to about 57 µM
% is scaled to controls: 0 for no effect and ±100 for the full control effect; potency is read from the fitted curve at half-maximal effect.

Compound	max response, negative = inhibition	Potency
O=C(CSc1nnc(-c2ccncc2)n1-c1ccc(F)cc1)NC(=O)NCc1ccco1	inconclusive: -31.4% [inhibitor]	
[O-]/[N+](=C\c1ccccc1)c1ccc(Br)cc1		active: 15 µM
COc1ccc(CNC(=O)c2sc(=S)n(-c3ccccc3)c2N)cc1		active: 13.4 µM
CN1CCC(n2[nH]c(-c3ccccc3)c(Cc3ccccc3)c2=O)CC1		inconclusive: 29.9 µM [inhibitor, single point]
CC(=O)Nc1ccc2nc(SCC(=O)NCCOc3ccccc3)sc2c1		active: 3.36 µM
Cc1nn(C)c(C)c1S(=O)(=O)N1CCCC(C(=O)NC2CCCCCC2)C1 (stereo unspecified)		active: 26.7 µM
C[C@]12C(=O)N(c3ccccc3)C(=O)N1[C@@H]1c3ccccc3OC[C@@H]1[C@H]2c1ccccc1	inactive: -13.5%	
C=C(C)COc1cc2oc(=O)c(CC(=O)N3C[C@H]4C[C@@H](C3)c3cccc(=O)n3C4)c(C)c2cc1Cl		inconclusive: 21.2 µM [inhibitor, single point]
COc1ccc(NS(=O)(=O)c2ccc(NC(=S)NC(=O)C(C)C)cc2)cc1		inconclusive: 33.6 µM [inhibitor, single point]
O=C(c1ccccc1)c1cc2ccccc2o1	inactive: -6.38%	
O=C(CCc1nc2ccccc2s1)N1CCN(S(=O)(=O)c2cccs2)CC1	inconclusive: -32.2% [inhibitor]	
O=C(C1CCN(S(=O)(=O)c2cccc3nsnc23)CC1)N1CC=C(c2ccccc2)CC1		inconclusive: 75.2 µM [inhibitor, single point]
Cc1[nH]n2c(=O)cc(-c3ccc([N+](=O)[O-])cc3)nc2c1-c1ccccc1		inconclusive: 23.8 µM [inhibitor, single point]
CCN(CC)S(=O)(=O)c1cccc(-c2n[nH]c(=S)n2CC(C)C)c1	inactive: -8.92%	
S=c1[nH]nc(-c2ccncc2)n1/N=C/C=C/c1ccco1		inconclusive: 23.8 µM [inhibitor, partial curve]
CC(=O)Nc1cc(-c2ccc(F)cc2)cn2c(-c3ccc(F)cc3)cnc12		inconclusive: 23.8 µM [inhibitor, partial curve]
COc1cc(OC)cc(C(=O)Nc2ccc(NC(=O)c3ccco3)c(Cl)c2)c1		inconclusive: 29.9 µM [inhibitor, partial curve]
Cc1ccccc1CNS(=O)(=O)c1c(C(=O)N2CCCC2)c(C)n(C)c1C		inconclusive: 23.8 µM [inhibitor, single point]
CSc1ccc(-c2nc3cnccn3c2Nc2ccc3c(c2)OCO3)cc1	inactive: -6.29%	
CC1CCCCN1C(=O)CSc1nnc(-c2ccco2)n1CC1CCCO1 (stereo unspecified)	inactive: -6.83%	
O=C(Nc1ccccc1N1CCCCC1)c1ccc(-c2ccc(Cl)cc2)o1		active: 26.7 µM
COCCOC(=O)c1c(C)nc(SCC(=O)Nc2ccc(OC)cc2)c(C#N)c1-c1ccco1	inactive: -14.2%	
CCOc1ccc(N=Cc2ccc(N(C)C)cc2)c(O)c1		inconclusive: 33.6 µM [inhibitor, partial curve]
OC(c1ccc(F)cc1)c1nc(-c2cc3ccccc3o2)cs1 (stereo unspecified)	inactive: 0.948%	

Some of the entries so far, with bars between the fields:
Compound | max response, negative = inhibition | Potency
CCN(CC)S(=O)(=O)c1cccc(-c2n[nH]c(=S)n2CC(C)C)c1 | inactive: -8.92% | 
S=c1[nH]nc(-c2ccncc2)n1/N=C/C=C/c1ccco1 |  | inconclusive: 23.8 µM [inhibitor, partial curve]
CC(=O)Nc1cc(-c2ccc(F)cc2)cn2c(-c3ccc(F)cc3)cnc12 |  | inconclusive: 23.8 µM [inhibitor, partial curve]
COc1cc(OC)cc(C(=O)Nc2ccc(NC(=O)c3ccco3)c(Cl)c2)c1 |  | inconclusive: 29.9 µM [inhibitor, partial curve]

Remaining list, next part.

Compound	max response, negative = inhibition	Potency
O=C1ON=C(c2ccccc2)/C1=C/c1ccc(-c2ccccc2[N+](=O)[O-])o1		active: 0.947 µM
COc1cc(/C=C2\SC(=S)N(C(C(=O)O)c3ccccc3)C2=O)ccc1O (stereo unspecified)	inactive: 8.23%	
O=S(=O)(O)c1cccc2c(N=Nc3ccc(O)c4ncccc34)cccc12		active: 21.2 µM
Cc1cc(C)c(S(=O)(=O)NCC23C=CC(O2)C2C(=O)N(c4ccccc4)C(=O)C23)c(C)c1 (stereo unspecified)	inactive: -8.47%	
CCN1CCCC1Cn1cnc2c([nH]c3cccc(Cl)c32)c1=O (stereo unspecified)	inactive: -10.2%	
CCOC(=O)c1c(C)oc2c1c(C(c1ccncc1)N1CCOCC1)c(O)c1ccccc12 (stereo unspecified)		active: 10.6 µM
COc1cc2c(=O)n(CCCN3CCOCC3)c(=S)[nH]c2c(OC)c1OC		inconclusive: 23.8 µM [inhibitor, single point]
Cc1c(C(=O)OCC2CCCO2)[nH]c2c1C(=O)CC(c1ccco1)C2 (stereo unspecified)		inconclusive: 23.8 µM [inhibitor, single point]
CN(Cc1ccc(Cl)cc1)C(=O)COC(=O)CSc1ccc([N+](=O)[O-])cc1		inconclusive: 23.8 µM [inhibitor, partial curve]
COC(=O)c1cc(C)sc1NC(=O)CSc1ncccn1		inconclusive: 23.8 µM [inhibitor, partial curve]
Cc1ccc2c(c1)C(c1ccc(N3CCOCC3)cc1)=NNC(c1cccs1)=N2	inactive: 0.943%	
Cc1ccc(O)c(NC(=O)C2CC(c3cccc(Br)c3)=NO2)c1 (stereo unspecified)		inconclusive: 29.9 µM [inhibitor, single point]
O=[n+]1cc(-c2ccc(F)cc2)n([O-])c2c1CCC2		inconclusive: 37.7 µM [inhibitor, single point]
CC(=O)c1ccc(-c2ccc(C(=O)N3CCCc4ccccc43)o2)cc1	inactive: -12.6%	
Cc1cc(C(=O)N2CCCC(CO)(Cc3ccc(F)cc3F)C2)nn1C (stereo unspecified)	inactive: -4.08%	
O=C1ON=C(c2cccc([N+](=O)[O-])c2)/C1=C/c1ccc(O)cc1		active: 1.5 µM
CC(=O)/C(=C\N(C)C)Sc1ccc(Cl)cc1		inconclusive: 29.9 µM [inhibitor, partial curve]
O=C(NCCCNC(=O)c1cncc(O)c1)c1cncc(O)c1		inconclusive: 21.2 µM [inhibitor, single point]
COc1ccc(-c2nc3cc(C)c(Br)c(C)n3c2Cc2ccsc2)cc1OC	inactive: -3.41%	
C[C@H]1CN([C@@H](C)CO)C(=O)CCCn2nncc2CO[C@H]1CN(C)C(=O)Nc1ccccc1	inconclusive: -30.8% [inhibitor]	
Cc1ccc2nsnc2c1NC(=S)NC(=O)c1ccco1		inconclusive: 18.9 µM [inhibitor, partial curve]
CCn1cc(C(=O)O)c(=O)c2cc(F)c(N3CCN(C(=S)NC(=O)c4ccccc4Cl)CC3)cc21		inconclusive: 26.7 µM [inhibitor, single point]
CC(=O)Nc1cccn(Cc2c(Cl)cccc2Cl)c1=O		inconclusive: 18.9 µM [inhibitor, partial curve]
Cc1cc(C)n2nc(SCc3ccccc3F)nc2n1		inconclusive: 26.7 µM [inhibitor, partial curve]

Compound	max response, negative = inhibition	Potency
O=S(=O)(c1cnc(Cl)c(Br)c1)N1CCCCCC1	inactive: -4.47%	
C/C(CCc1ccco1)=N\NC(=O)CNc1cccc2ccccc12		inconclusive: 23.8 µM [inhibitor, partial curve]
CCc1nnc(NC(=O)c2ccc(S(=O)(=O)N3CCOCC3)cc2)s1	inactive: -0.594%	
COc1ccc(C(=O)NC(C(=O)NCC(=O)Nc2c(C)cccc2C)C(C)C)cc1 (stereo unspecified)		inconclusive: 10.6 µM [inhibitor, partial curve]
CCn1c(=N)n(CC(=O)C(C)(C)C)c2ccccc21	inactive: -8.84%	
COc1ccc(OC)c(CNC(=O)C2CCCN(S(=O)(=O)N3CC(C)CC(C)C3)C2)c1 (stereo unspecified)	inactive: -7.67%	
O=C(NCCCc1ccncc1)C1CCC(=O)N(Cc2cccc(F)c2)C1 (stereo unspecified)		active: 29.9 µM
CCc1cc(-c2n[nH]c(=S)n2Cc2ccccc2)cs1	inactive: -8.67%	
COC(=O)CCC(=O)OC1(C)C(=O)C=C2C=C(C3CC3)N(CCCCO)C=C2C1=O (stereo unspecified)	inactive: -19.5%	
O=C(CSc1c(Cl)cccc1Cl)NC1CCCc2ccccc21 (stereo unspecified)		inconclusive: 29.9 µM [inhibitor, single point]
COc1ccccc1-n1c(-c2cccnc2)n[nH]c1=S	inactive: -11.9%	
CCOC(=O)c1sc(N2C(=O)C(O)=C(C(=O)c3ccc(C)o3)C2c2ccc(OC)c(OC)c2)nc1C (stereo unspecified)		inconclusive: 26.7 µM [inhibitor, partial curve]
Cc1c(N(C(=O)CNC(=O)c2ccccc2)C2(C(=O)NC3CCCC3)CCCCC2)c(=O)n(-c2ccccc2)n1C		inconclusive: 21.2 µM [inhibitor, single point]
CCOc1ccc(/C=N/Nc2ccccn2)cc1OC		inconclusive: 21.2 µM [inhibitor, partial curve]
O=C(Nc1cccc(Cc2ccccc2)c1)Nc1ccc2nc([C@@H]3O[C@H](CO)[C@@H](O)[C@H](O)[C@H]3O)[nH]c2c1	inactive: -5.78%	
Cc1ccc(CNc2ccc(O)cc2)cc1		inconclusive: 23.8 µM [inhibitor, single point]
CCOC(=O)N1CCC(N2CCN(Cc3ccc(F)c(F)c3)C(CCO)C2)CC1 (stereo unspecified)		inconclusive: 8.44 µM [inhibitor, single point]
CC(C)(C)C1CCC(OC(=O)C[N+]2(C)CCCCC2)CC1 (stereo unspecified)	inactive: -0.995%	
COc1ccc(Cl)cc1NC(=S)N1CCC(c2ccc(C)cc2)C1 (stereo unspecified)		inconclusive: 23.8 µM [inhibitor, partial curve]
CC(=O)Oc1cc2c(C(=O)NCCCN3CCOCC3)c(C)oc2c2ccccc12		active: 29.9 µM
O=C(Nc1ccccc1C(=O)Nc1nnc(C(F)(F)F)s1)c1ccccc1Cl		active: 26.7 µM
Cc1cccc(-c2sc(Nc3ccccc3)n[n+]2-c2ccccc2)c1		inconclusive: 37.7 µM [inhibitor, single point]
CC(C)OC(=O)CSc1nc(N)c(C#N)c(-c2ccco2)c1C#N		inconclusive: 29.9 µM [inhibitor, partial curve]
